Laboratory results reported in PMC4225516.
These are yes or no findings as the source states them, for the method shown. In cells and extracts the contact can be indirect. Some results given as binding are weak or reduced against the parent protein; the word gives no strength.

Protein sequences, listed by entry. Tags and fused reporters are not part of them. Residues count along the entry.
UniProt P14211, residues 18-416: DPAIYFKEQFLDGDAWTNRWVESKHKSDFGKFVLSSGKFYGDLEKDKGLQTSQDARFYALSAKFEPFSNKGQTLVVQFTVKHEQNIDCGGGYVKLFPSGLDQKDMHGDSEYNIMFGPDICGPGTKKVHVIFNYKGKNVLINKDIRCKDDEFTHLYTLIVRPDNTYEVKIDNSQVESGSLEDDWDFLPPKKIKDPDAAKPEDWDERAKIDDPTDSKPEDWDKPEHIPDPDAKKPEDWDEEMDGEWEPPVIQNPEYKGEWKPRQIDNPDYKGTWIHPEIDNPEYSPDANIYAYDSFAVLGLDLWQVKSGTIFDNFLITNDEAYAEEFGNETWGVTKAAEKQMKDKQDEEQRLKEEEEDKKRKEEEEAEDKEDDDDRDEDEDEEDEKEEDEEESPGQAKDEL

T1: mouse acrosome and sperm tail protein (MAST) (mouse (endogenous in testis)) (UniProt Q7TPM5)
T1 sequence: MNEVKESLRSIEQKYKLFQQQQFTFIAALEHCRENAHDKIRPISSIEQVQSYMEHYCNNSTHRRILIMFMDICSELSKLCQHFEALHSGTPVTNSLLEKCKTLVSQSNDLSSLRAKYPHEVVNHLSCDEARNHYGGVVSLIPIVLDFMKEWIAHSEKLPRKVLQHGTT

B1: mouse acrosome and sperm tail protein (MAST) (protein, UniProt Q7TPM5 1-168)
chain: T1 sequence

Key:
[1] = biological target: T1, mouse acrosome and sperm tail protein (MAST) (mouse (endogenous in testis)); test: co-IP; antibody cross-linked (DSS) to protein A/G plus agarose (Pierce cross link IP kit); pre-cleared mouse testis lysate, 1-2 h or overnight at 4°C; eluate probed by western blot
[2] = biological target: calreticulin (mouse (endogenous in testis)) (UniProt P14211); test: as above

Row | Molecule | binding [1] | binding [2]
1 | calreticulin (from UniProt P14211 18-416) | binds | 
2 | B1 |  | binds
